# The other results are listed elsewhere or left out.
# Chains of the proteins cited; added tags and fusions are not shown. Lines headed by an entry give the natural chain unless they say otherwise; changes in a name come on top.
# UniProt Q99757: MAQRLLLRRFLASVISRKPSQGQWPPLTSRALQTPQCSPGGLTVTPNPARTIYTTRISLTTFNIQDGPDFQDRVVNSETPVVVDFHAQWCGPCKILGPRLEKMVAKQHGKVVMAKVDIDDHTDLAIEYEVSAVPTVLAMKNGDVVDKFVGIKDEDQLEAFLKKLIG
# UniProt Q3B726, whole entry, looked up: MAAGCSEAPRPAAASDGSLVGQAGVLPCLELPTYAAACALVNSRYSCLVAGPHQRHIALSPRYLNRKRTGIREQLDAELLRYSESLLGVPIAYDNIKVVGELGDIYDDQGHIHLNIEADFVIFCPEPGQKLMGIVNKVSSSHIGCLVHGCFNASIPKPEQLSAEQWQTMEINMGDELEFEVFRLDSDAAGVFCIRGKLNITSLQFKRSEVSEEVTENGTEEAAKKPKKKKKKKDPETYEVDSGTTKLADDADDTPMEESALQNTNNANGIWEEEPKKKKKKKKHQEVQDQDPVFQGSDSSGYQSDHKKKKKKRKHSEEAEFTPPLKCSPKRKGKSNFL
# UniProt P68036, whole entry, looked up: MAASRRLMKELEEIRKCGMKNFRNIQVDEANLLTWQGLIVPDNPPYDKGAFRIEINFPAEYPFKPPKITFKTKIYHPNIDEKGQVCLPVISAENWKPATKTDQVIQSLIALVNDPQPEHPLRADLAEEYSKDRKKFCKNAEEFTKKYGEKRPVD
# UniProt P83876: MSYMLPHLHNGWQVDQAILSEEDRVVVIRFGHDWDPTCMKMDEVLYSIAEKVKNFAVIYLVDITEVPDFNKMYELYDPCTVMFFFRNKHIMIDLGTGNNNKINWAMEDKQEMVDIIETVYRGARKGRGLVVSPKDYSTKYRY
# UniProt Q16881, whole entry, looked up: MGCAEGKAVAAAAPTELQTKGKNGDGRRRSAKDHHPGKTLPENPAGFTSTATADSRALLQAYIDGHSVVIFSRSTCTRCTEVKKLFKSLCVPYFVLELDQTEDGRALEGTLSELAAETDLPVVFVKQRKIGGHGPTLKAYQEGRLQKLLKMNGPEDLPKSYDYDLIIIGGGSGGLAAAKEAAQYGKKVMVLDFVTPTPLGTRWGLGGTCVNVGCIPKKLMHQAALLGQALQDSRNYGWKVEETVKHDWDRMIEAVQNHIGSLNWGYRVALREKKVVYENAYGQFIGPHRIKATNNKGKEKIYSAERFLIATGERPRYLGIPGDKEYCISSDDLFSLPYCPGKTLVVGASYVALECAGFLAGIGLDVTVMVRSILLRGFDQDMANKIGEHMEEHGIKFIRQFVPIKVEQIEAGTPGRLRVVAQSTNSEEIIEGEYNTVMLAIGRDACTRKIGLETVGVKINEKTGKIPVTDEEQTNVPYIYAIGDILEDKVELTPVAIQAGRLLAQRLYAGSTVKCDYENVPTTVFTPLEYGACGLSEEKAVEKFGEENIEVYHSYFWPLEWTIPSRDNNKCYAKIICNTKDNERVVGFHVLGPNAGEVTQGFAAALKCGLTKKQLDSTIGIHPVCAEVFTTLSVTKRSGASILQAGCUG
# UniProt P51965: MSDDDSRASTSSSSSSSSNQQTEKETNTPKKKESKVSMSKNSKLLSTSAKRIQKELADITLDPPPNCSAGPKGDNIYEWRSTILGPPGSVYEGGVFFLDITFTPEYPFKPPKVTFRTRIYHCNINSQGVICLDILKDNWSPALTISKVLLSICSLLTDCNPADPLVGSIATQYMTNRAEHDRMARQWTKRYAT
# UniProt P15374: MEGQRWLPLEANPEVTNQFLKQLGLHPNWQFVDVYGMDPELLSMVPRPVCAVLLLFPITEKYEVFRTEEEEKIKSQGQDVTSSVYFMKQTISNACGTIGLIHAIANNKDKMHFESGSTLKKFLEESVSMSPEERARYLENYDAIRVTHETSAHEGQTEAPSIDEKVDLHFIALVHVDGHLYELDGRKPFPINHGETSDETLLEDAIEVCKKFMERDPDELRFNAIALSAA
# UniProt Q9H4B7, whole entry, looked up: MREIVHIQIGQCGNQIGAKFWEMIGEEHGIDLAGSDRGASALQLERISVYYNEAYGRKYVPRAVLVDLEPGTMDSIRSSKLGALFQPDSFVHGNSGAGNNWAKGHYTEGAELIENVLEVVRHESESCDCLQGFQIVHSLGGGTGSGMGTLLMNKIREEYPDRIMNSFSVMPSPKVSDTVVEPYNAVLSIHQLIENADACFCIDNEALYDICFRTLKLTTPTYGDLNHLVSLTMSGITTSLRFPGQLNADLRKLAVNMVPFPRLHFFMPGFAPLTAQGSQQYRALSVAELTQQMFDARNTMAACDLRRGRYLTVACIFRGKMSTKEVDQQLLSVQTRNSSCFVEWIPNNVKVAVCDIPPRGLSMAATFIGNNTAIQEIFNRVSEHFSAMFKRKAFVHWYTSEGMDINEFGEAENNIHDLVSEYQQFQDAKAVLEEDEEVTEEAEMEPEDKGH
# UniProt P40222: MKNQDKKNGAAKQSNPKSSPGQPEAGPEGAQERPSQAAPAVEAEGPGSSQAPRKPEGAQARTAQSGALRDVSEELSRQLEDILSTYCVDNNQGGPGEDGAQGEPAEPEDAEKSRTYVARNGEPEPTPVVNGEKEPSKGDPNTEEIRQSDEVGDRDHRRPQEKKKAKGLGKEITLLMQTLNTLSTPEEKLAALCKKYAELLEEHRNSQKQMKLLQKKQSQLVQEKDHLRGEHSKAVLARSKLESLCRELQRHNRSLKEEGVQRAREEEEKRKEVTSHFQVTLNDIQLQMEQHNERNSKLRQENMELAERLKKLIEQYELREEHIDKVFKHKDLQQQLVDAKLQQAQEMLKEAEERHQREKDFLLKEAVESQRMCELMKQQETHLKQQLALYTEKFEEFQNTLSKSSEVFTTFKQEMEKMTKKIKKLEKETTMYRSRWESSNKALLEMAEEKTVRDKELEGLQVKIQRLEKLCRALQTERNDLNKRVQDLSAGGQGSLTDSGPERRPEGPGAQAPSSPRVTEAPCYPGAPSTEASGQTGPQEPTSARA
# UniProt Q9Y5K5, whole entry, looked up: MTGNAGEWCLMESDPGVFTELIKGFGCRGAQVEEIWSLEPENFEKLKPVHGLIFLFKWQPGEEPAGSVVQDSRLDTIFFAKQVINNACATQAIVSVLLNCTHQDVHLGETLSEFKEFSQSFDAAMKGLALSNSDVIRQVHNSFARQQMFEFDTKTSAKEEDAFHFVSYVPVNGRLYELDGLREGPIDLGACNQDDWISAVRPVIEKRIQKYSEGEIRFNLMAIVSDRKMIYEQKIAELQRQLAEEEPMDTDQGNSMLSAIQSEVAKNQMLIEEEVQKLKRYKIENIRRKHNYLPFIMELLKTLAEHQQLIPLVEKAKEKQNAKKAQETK
# UniProt Q9BTX7: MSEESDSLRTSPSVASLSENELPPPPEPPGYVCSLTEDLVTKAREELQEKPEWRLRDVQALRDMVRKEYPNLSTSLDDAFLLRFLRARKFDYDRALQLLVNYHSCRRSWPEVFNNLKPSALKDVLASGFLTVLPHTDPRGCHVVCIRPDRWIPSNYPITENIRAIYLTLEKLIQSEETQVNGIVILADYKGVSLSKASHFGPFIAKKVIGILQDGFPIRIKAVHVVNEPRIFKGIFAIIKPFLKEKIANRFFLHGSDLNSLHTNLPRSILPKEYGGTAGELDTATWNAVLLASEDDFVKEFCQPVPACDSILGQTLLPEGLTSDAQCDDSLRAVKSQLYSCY
# UniProt P63146, whole entry, looked up: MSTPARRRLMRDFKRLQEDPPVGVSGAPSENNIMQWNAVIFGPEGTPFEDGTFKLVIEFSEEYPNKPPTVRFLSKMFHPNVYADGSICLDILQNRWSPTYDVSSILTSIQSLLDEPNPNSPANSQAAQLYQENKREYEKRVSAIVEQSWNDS
# UniProt P07437, whole entry, looked up: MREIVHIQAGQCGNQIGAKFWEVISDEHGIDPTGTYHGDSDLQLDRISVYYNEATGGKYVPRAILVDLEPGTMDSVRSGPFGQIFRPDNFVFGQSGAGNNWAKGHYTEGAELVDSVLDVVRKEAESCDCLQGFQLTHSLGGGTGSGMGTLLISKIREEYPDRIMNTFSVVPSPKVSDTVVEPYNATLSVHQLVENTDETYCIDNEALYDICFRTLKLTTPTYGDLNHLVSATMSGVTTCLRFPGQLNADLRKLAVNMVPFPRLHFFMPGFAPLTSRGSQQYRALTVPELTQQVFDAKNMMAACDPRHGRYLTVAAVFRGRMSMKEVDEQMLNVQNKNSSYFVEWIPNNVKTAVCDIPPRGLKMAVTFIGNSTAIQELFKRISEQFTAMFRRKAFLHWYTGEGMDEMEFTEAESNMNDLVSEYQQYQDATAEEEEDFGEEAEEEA
# UniProt Q15819: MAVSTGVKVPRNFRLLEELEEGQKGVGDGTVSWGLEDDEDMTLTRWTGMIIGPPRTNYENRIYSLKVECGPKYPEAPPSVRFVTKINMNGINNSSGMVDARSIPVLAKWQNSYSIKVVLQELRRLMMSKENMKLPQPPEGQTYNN
# UniProt Q04323: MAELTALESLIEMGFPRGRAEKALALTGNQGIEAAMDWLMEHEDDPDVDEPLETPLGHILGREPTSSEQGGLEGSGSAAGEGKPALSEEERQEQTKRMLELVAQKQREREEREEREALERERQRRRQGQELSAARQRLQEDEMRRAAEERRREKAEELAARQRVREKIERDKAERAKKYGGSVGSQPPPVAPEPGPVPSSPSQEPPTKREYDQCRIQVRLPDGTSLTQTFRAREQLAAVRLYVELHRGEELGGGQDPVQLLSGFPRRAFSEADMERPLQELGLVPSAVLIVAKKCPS
# UniProt O14562: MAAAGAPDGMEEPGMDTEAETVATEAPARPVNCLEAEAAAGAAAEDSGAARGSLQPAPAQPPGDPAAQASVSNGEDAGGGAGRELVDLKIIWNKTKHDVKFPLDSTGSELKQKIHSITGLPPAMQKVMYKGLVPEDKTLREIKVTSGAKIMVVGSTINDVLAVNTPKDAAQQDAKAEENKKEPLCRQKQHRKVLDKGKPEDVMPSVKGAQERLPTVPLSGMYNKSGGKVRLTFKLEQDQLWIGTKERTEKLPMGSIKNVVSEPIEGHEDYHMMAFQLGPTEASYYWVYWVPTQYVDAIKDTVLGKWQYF
# UniProt P51668: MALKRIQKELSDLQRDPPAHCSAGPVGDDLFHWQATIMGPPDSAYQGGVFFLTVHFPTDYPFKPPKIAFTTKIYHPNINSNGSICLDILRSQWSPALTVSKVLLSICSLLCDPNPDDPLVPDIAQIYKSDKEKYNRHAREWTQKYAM
# UniProt Q9UHD9, whole entry, looked up: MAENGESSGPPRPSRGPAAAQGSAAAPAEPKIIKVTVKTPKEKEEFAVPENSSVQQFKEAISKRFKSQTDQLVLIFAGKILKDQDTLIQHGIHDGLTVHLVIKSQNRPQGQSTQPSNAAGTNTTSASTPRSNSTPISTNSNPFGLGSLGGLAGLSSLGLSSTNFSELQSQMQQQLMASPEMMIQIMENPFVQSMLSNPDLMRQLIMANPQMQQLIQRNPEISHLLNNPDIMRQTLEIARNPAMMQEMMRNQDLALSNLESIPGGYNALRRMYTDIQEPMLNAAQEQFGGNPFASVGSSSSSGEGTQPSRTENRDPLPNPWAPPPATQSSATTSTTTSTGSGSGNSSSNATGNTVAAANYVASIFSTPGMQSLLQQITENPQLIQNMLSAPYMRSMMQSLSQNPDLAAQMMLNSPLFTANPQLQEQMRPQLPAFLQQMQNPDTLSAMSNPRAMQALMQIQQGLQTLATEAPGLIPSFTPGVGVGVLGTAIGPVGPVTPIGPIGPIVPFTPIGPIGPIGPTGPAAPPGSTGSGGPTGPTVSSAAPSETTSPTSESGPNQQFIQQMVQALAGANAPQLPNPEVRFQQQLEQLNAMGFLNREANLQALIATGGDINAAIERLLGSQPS
# UniProt Q01081: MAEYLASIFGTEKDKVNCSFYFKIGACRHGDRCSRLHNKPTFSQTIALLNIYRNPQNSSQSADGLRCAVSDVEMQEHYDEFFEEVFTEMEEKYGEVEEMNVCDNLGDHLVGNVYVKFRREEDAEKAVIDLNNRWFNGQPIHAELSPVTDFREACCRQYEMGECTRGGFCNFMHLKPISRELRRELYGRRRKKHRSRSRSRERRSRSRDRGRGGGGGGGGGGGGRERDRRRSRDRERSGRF
# UniProt P0CG48, whole entry, looked up: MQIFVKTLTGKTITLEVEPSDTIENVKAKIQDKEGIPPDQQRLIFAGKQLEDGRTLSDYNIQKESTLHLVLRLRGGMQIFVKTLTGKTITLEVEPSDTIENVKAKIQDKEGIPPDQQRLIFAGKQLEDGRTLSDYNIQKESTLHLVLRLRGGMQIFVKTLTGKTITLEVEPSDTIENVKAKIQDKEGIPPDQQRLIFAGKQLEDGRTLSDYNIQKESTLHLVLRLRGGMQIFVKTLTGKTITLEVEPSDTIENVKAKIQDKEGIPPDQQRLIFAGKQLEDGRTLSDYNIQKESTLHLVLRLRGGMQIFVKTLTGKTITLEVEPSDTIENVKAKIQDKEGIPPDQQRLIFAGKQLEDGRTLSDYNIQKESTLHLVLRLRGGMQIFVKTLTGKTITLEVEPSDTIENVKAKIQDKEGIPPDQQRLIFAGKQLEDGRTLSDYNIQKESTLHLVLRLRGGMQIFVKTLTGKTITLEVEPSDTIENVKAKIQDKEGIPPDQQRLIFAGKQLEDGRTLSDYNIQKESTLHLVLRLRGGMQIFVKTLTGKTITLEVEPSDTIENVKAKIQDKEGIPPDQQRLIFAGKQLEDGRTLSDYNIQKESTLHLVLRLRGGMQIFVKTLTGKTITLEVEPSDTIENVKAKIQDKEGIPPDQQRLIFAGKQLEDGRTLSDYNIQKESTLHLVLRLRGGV
# Compound: CN1CCC(CNc2ccc3ncc(-c4cccc(OC(F)(F)F)c4)n3n2)CC1
# Assay: log2 fold change, soluble protein after heating vs DMSO (PISA); higher = thermal stabilisation; K562 lysate, 10 uM; active = over 0.2 and 3.5 SD of the protein, either way, in both replicates (recomputed)
# How it was run: (§1)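 A 30 min treatment with 10 μM compound was applied to crude K562 extract at 1 mg/mL protein in PBS pH 7.4 with 1 mM MgCl2. Heating for 3 min spanned 48°C-58°C, after which aliquots were pooled, adjusted to 0.5% NP-40 at 4°C and spun at 21,000xg for 90 min. TMTpro 16plex LC-MS/MS of the supernatant, with channel sums equalised, gave values recorded as log-two fold change in thermal stability against solvent controls, from duplicates.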
row,Target,log2 fold change
1,TXN2 (UniProt Q99757),inactive: 0.001
2,TWISTNB (UniProt Q3B726),inactive: -0.05
3,UBE2L3 isoform 3 (UniProt P68036),inactive: -0.031
4,UBE2R2 (UniProt Q712K3),inactive: -0.008
5,TXNL4A (UniProt P83876),inactive: 0.033
6,TXNRD1 (UniProt Q16881),inactive: 0.048
7,UBE2Q1 (UniProt Q7Z7E8),inactive: 0.03
8,TUBG1 (UniProt P23258),inactive: 0.011
9,UBE2E1 (UniProt P51965),inactive: -0.055
10,UCHL3 (UniProt P15374),inactive: 0.013
11,TUBB1 (UniProt Q9H4B7),inactive: -0.025
12,UBE2I (UniProt P63279),inactive: 0.023
13,TXLNA (UniProt P40222),inactive: -0.013
14,TTN isoform 12 (UniProt Q8WZ42),inactive: 0.15
15,UBR2 isoform 4 (UniProt Q8IWV8),inactive: -0.007
16,TUBGCP2 isoform 4 (UniProt Q9BSJ2),inactive: -0.064
17,TXNRD2 (UniProt Q9NNW7),inactive: 0.082
18,UAP1L1 (UniProt Q3KQV9),inactive: -0.131

row,Target,log2 fold change
1,TUT4 (UniProt Q5TAX3),inactive: 0.083
2,UCHL5 isoform 3 (UniProt Q9Y5K5),inactive: -0.06
3,TTPAL (UniProt Q9BTX7),inactive: 0.01
4,UBE2B (UniProt P63146),inactive: -0.04
5,UBE4B isoform 4 (UniProt O95155),inactive: -0.003
6,TUBGCP3 (UniProt Q96CW5),inactive: 0.015
7,TUBB (UniProt P07437),inactive: 0.004
8,UBE2V2 (UniProt Q15819),inactive: 0.021
9,UBXN1 (UniProt Q04323),inactive: 0.063
10,UBFD1 (UniProt O14562),inactive: 0.031
11,UBE2D1 (UniProt P51668),inactive: -0.025
12,UBQLN2 (UniProt Q9UHD9),inactive: 0.002
13,TUFM (UniProt P49411),inactive: -0.074
14,U2AF1 isoform 2 (UniProt Q01081),inactive: 0.066
15,TUBB3 (UniProt Q13509),inactive: 0.012
16,UBE2E3 (UniProt Q969T4),inactive: -0.016
17,UBC (UniProt P0CG48),inactive: -0.07

# Compound: CN1CCN(CCOc2cc(OC3CCOCC3)c3c(Nc4c(Cl)ccc5c4OCO5)ncnc3c2)CC1 [saracatinib]
# Assay: as above
# How it was run: as §1
row,Target,log2 fold change
1,TXN2 (UniProt Q99757),inactive: -0.045
2,TWISTNB (UniProt Q3B726),inactive: 0.033
3,UBE2L3 isoform 3 (UniProt P68036),inactive: -0.027
4,UBE2R2 (UniProt Q712K3),inactive: 0.022
5,TXNL4A (UniProt P83876),inactive: -0.005
6,TXNRD1 (UniProt Q16881),inactive: 0.014
7,UBE2Q1 (UniProt Q7Z7E8),inactive: -0.014
8,TUBG1 (UniProt P23258),inactive: -0.018
9,UBE2E1 (UniProt P51965),inactive: 0.024
10,UCHL3 (UniProt P15374),inactive: -0.003
11,TUBB1 (UniProt Q9H4B7),inactive: -0.002
12,UBE2I (UniProt P63279),inactive: -0.01
13,TXLNA (UniProt P40222),inactive: -0.015
14,TTN isoform 12 (UniProt Q8WZ42),inactive: 0.04
15,UBR2 isoform 4 (UniProt Q8IWV8),inactive: 0.022
16,TUBGCP2 isoform 4 (UniProt Q9BSJ2),inactive: -0.035
17,TXNRD2 (UniProt Q9NNW7),inactive: 0
18,UAP1L1 (UniProt Q3KQV9),inactive: 0.188

row,Target,log2 fold change
1,TUT4 (UniProt Q5TAX3),inactive: -0.01
2,UCHL5 isoform 3 (UniProt Q9Y5K5),inactive: -0.012
3,TTPAL (UniProt Q9BTX7),inactive: -0.017
4,UBE2B (UniProt P63146),inactive: -0.08
5,UBE4B isoform 4 (UniProt O95155),inactive: 0.007
6,TUBGCP3 (UniProt Q96CW5),inactive: 0.002
7,TUBB (UniProt P07437),inactive: 0.029
8,UBE2V2 (UniProt Q15819),inactive: 0.009
9,UBXN1 (UniProt Q04323),inactive: 0
10,UBFD1 (UniProt O14562),inactive: 0
11,UBE2D1 (UniProt P51668),inactive: 0.043
12,UBQLN2 (UniProt Q9UHD9),inactive: 0.013
13,TUFM (UniProt P49411),inactive: 0.022
14,U2AF1 isoform 2 (UniProt Q01081),inactive: 0.049
15,TUBB3 (UniProt Q13509),inactive: 0.015
16,UBE2E3 (UniProt Q969T4),inactive: -0.012
17,UBC (UniProt P0CG48),inactive: 0.008

# Reference: the supplement of paper PMC10849652
